The labels stand for the following.
B1: antibody 1229 (antibody, human IgG1, kappa, V domains shown)
VH: QVQLKESGPGLVAPSQSLSITCSVSGFSLTIYGVHWVRQPPGKGLEWLGVMWAGGNTDYNSALMSRLNISKDNSKSQVFLKVNSLQTDDTAMYYCTRDPDGYYVGWFFDVWGAGTTVTVSS
VL: DIVMTQSHKFMSTSVGDRVSITCKASQDVTNAVAWYQQKPGQSPKLLIYWASIRHTGVPDRFTGSRSGTDYTLTINSVQAEDLALYYCQQHYNTPLTFGAGTKLEIKR
B2: antibody 1030 (antibody, human IgG1, kappa, V domains shown)
VH: EVQLVESGGGLVKPGGSLKLSCAASGFTFSSYALSWVRQTPERRLEWVASISGVGSTYFPDSVKGRFTMSRDNARNILYLQMSSLRSEDTAMYYCARGSDGYFYAMDYWGQGTSVTVSS
VL: DIVLTQSPASLAVSLGQRATISCRASKSVSTSGYSFMHWYQLKPGQPPKLLIYLASNLESGVPARFSGSGSGTDFTLNIHPVEEEDAATYYCQHSREFPLTFGGGTKLEIKR
notes: Chimeric mouse/human IgG1 kappa
B3: antibody 1254 (antibody, human IgG1, kappa, V domains shown)
VH: EVQLVESGGGLVKPGGSLKLSCAASGFAYSTYDMSWVRQTPEKRLEWVAYISSGGDAAYYPDTVKGRFTISRDNAKNTLYLQMSSLKSEDTAMYYCARSRYGNYGDAMDYWGQGTSVTVSS
VL: DVVMTQTPLSLPVSLGDQASISCRSSQSLVHSNGNTYLHWYLQKPGQSPKLLLYKVSNRFSGVPDRFSGSGSGTDFTLKISRVESEDLGVYFCSQNTHVYTFGGGTKLEIKR
notes: Chimeric mouse/human IgG1 kappa; also called mAb 1254
B4: antibody 992 (antibody, human IgG1, kappa, V domains shown)
VH: EVQLQQPGSELVRPGASVKLSCKASGYTFTSYWMHWVKQRPGQGLEWIGNIYPGSRSTNYDEKFKSKATLTVDTSSSTAYMQLSSLTSEDSAVYYCTRNGDYYVSSGDAMDYWGQGTSVTVSS
VL: DIQMTQTTSSLSASLGDRVTISCRTSQDIGNYLNWYQQKPDGTVKLLIYYTSRLHSGVPSRFSGSGSGTDFSLTINNVEQEDVATYFCQHYNTVPPTFGGGTKLEIKR
notes: Chimeric mouse variable / human IgG1 kappa; the light chain entry includes the human kappa constant region; the end of the range is counted on the printed entry
B5: antibody 1024 (antibody, human IgG1, kappa, V domains shown)
VH: QVQLQQPGAELVEPGGSVKLSCKASGYTFTSHWMHWVKQRPGQGLEWIGEINPSSGRNNYNEKFKSKATLTVDKSSSTAYMQFSSLTSEDSAVYYCVRYYGYDEAMDYWGQGTSVTVSS
VL: DIVMTQAAFSNPVTLGTSASISCRSSKSLLHSNGITYLYWYLQKPGQSPQLLIYQMSNLASGVPDRFSSSGSGTDFTLRISRVEAEDVGVYYCAQNLELPYTFGGGTKLEIKR
notes: as for B2

These are yes or no findings as the source states them, for the method shown. Some entries that bind do so weakly or less than the wild type.

The experiment has as its target EGFRvIII (deletion mutant EGFR receptor) (human) (UniProt P00533). Put plainly: EGFRvIII-specific ELISA (Example 1). For orientation: ELISA stands for enzyme-linked immunosorbent assay.
Turning to B1, the binding result is reported as “binds”. In the case of B2 it was “binds”. With B3, the binding entry was “binds”. In the case of B4 it was “binds”; in that of B5, “binds”.

(Values after US20110229463A1 (SYMPHOGEN A S, published 2011).)
